Data from article PMC4702122, “Embelin binds to human neuroserpin and impairs its polymerisation” (Scientific Reports, 2016).
These are yes or no findings as the source states them, for the method shown. For part of these data: Binding can be weak; no strength is given.

T1: Neuroserpin (SERPINI1), wild type, uncleaved (human) (UniProt Q99574)
T1 sequence (chain, N-terminal initial formylmethionine (calculated mass 46285 Da)): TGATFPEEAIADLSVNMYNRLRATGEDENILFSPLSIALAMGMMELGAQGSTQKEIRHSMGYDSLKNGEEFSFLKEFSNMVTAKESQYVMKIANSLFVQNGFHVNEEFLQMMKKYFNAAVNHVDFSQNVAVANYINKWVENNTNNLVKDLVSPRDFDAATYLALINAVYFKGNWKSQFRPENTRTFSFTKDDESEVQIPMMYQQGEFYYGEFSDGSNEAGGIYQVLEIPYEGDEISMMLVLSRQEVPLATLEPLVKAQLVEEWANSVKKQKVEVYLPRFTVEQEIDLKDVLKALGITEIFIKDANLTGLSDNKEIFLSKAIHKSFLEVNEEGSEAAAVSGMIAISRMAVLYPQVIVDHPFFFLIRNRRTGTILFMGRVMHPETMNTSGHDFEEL


What was measured:
[1] = biological target: T1, Neuroserpin (SERPINI1), wild type, uncleaved (human); experiment: SEC; Nat (4 mg/ml) with 1.5 mM (saturated) EMB overnight at 4, 20, 37, 45, 55 °C; Superdex200 10/300 GL, 10 mM Tris HCl, 50 mM KCl, pH 8.0; fractions also by SDS-PAGE; both purified
[2] = biological target: tissue plasminogen activator, active two-chain form (2ctPA); experiment: condition: only NS as SEC-purified monomeric or dimeric NS/EMB complex (2.4 μM NS, 0.4 μM 2ctPA); SDS-PAGE of the covalent acyl-enzyme complex; SEC-purified monomeric or dimeric NS/EMB complex (2.4 μM) with 2ctPA (0.4 μM), 6:1, 1-120 min, 25 °C, 50 mM Tris, 10 mM Na2HPO4, 150 mM NaCl, 0.1% Tween, pH 7.4; SYPRO Ruby; both purified
[3] = biological target: tissue plasminogen activator, active two-chain form (2ctPA); experiment: SDS-PAGE of the covalent acyl-enzyme complex; Nat (2.4 μM) with 2ctPA (0.4 μM), 6:1, 1-120 min, 25 °C, 50 mM Tris, 10 mM Na2HPO4, 150 mM NaCl, 0.1% Tween, pH 7.4; SYPRO Ruby; both purified

Row | binding [1] | binding [2] | binding [3] | Molecule
1 | no binding |  |  | Cleaved neuroserpin (Cle) (human)
2 |  | no binding | binds | Neuroserpin (SERPINI1), wild type, uncleaved (protein, UniProt Q99574 17-410, N-terminal initial formylmethionine (calculated mass 46285 Da)) TGATFPEEAIADLSVNMYNRLRATGEDENILFSPLSIALAMGMMELGAQGSTQKEIRHSMGYDSLKNGEEFSFLKEFSNMVTAKESQYVMKIANSLFVQNGFHVNEEFLQMMKKYFNAAVNHVDFSQNVAVANYINKWVENNTNNLVKDLVSPRDFDAATYLALINAVYFKGNWKSQFRPENTRTFSFTKDDESEVQIPMMYQQGEFYYGEFSDGSNEAGGIYQVLEIPYEGDEISMMLVLSRQEVPLATLEPLVKAQLVEEWANSVKKQKVEVYLPRFTVEQEIDLKDVLKALGITEIFIKDANLTGLSDNKEIFLSKAIHKSFLEVNEEGSEAAAVSGMIAISRMAVLYPQVIVDHPFFFLIRNRRTGTILFMGRVMHPETMNTSGHDFEEL
